The other results are listed elsewhere or left out. This data set is noisy: repeats of one test often differ as much as different tests do.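 The human kidney-derived cells carry a stably integrated construct of eight TEAD-binding elements driving luciferase, read by luminescence in a drug-repurposing library screen. A compound counts as a hit when its signal is more than five robust Z scores above the plate mean.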
System: HEK293A TEAD-LUC reporter
Test: TEAD-luciferase reporter activity (YAP activation), robust Z score vs plate; higher = stronger YAP/TEAD activation
Details: 24 h

Row | SMILES | TEAD-luciferase reporter activity (compound concentration: 200 nM) | TEAD-luciferase reporter activity (compound concentration: 10 uM) | TEAD-luciferase reporter activity (compound concentration: 2 uM)
1 | N[C@@H](CC(=O)NO)C(=O)O | inactive: -0.591 | inactive: 1.69 | 
2 | COc1cc(O)c(CC=C(C)C)c(O)c1C(=O)/C=C/c1ccc(O)cc1 [Xanthohumol] | inactive: -1.34 | inactive: -0.983 | inactive: 0.508
3 | O=C(O)c1ccccc1C(=O)Nc1ccc(S(=O)(=O)Nc2nccs2)cc1 | active: 8.42 | inactive: 0.191 | inactive: -1.07
4 | [Cl][Mg][Cl] [Magnesium Chloride] | inactive: -1.44 | inactive: 2 | inactive: -0.896
5 | CNC(=O)C1CCCN(c2nc3ncccc3o2)C1 (centres undefined) | inactive: -0.629 | inactive: 2.11 | 
6 | COc1ccc2c(C3COC(CCCNC(=O)OCC(N)=O)OC3)cccc2c1 (centres undefined) | inactive: -1.59 | inactive: -1.02 | inactive: -0.0532
7 | Cc1cc(NC(=O)CNC(c2ccccc2)c2ccccc2)n(-c2ccccc2)n1 | inactive: -0.165 | inactive: 0.776 | inactive: -0.709
8 | CC(C)N(Cc1ccccc1)C(=O)CN1C(=O)[C@@H](Cc2c[nH]c3ccccc23)c2nnc(-c3ccccc3)n2-c2ccccc21 | inactive: -0.543 | inactive: 3.22 | inactive: -0.264
9 | C[C@H](CCC(=O)O)[C@H]1CC[C@H]2[C@@H]3[C@H](O)C[C@@H]4C[C@H](O)CC[C@]4(C)[C@H]3C[C@H](O)[C@]12C | inactive: -0.454 | inactive: -0.0733 | inactive: -0.928
10 | CC(=O)NC[C@H]1CN(c2ccc(-c3cncs3)c(F)c2)C(=O)O1 | inactive: 0.2 | inactive: -0.188 | inactive: -0.623
11 | Cc1nn2c(c1-c1ccccc1)NC1=CCCC1=C2NCC(C)C | inactive: 0.437 | inactive: 0.333 | inactive: -1.9
12 | COc1ccc(Oc2cc(NCCC(F)(F)F)c3ncc(-c4ccc(C(=O)NC5CC5)c(C)c4)n3n2)c(F)c1F | inactive: -0.755 | inactive: -0.327 | inactive: -1.59
13 | CCCn1c(NC(=O)C2CCCN(c3cnccn3)C2)nc2ccccc21 (centres undefined) | inactive: -0.356 | inactive: -0.237 | inactive: -0.215
14 | CC1(C)CC=C(c2ccccc2)c2cc(C#Cc3ccc(C(=O)O)cc3)ccc21 | inactive: -0.566 | inactive: 0.0739 | inactive: 0.67
15 | CCOC(=O)C1=C(C)NC(C)=C(C(=O)OCCNC(=O)c2cccnc2)C1c1cccc([N+](=O)[O-])c1 (centres undefined) | inactive: -1.31 | inactive: 1.84 | inactive: -1.74
16 | COc1ccnc2[nH]cc(C(=O)C(=O)N3CCN(C(=O)c4ccccc4)C[C@H]3C)c12 | inactive: 0.761 | inactive: 0.245 | inactive: 1.26
17 | O=C(O)CSC(CCCc1ccccc1)c1ccc(OCc2ccc3ccccc3n2)cc1 (centres undefined) | inactive: -0.984 | active: 8.04 | inactive: -1.13

An excerpt of these results, with each value named:
CC(=O)NC[C@H]1CN(c2ccc(-c3cncs3)c(F)c2)C(=O)O1
  TEAD-luciferase reporter activity (compound concentration: 200 nM): inactive: 0.2; TEAD-luciferase reporter activity (compound concentration: 10 uM): inactive: -0.188; TEAD-luciferase reporter activity (compound concentration: 2 uM): inactive: -0.623
Cc1nn2c(c1-c1ccccc1)NC1=CCCC1=C2NCC(C)C
  TEAD-luciferase reporter activity (compound concentration: 200 nM): inactive: 0.437; TEAD-luciferase reporter activity (compound concentration: 10 uM): inactive: 0.333; TEAD-luciferase reporter activity (compound concentration: 2 uM): inactive: -1.9

From the supplement of paper PMC10735217
